These results are taken from paper doi:10.1101/2024.10.23.619933.

Sequences of proteins named here, by UniProt entry; tags and fusion partners are left off.
UniProt P51149: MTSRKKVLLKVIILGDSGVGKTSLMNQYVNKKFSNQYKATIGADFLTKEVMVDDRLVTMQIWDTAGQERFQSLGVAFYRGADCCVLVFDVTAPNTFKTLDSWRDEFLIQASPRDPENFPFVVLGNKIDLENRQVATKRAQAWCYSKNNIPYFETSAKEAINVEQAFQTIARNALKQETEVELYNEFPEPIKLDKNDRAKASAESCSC
UniProt Q15075: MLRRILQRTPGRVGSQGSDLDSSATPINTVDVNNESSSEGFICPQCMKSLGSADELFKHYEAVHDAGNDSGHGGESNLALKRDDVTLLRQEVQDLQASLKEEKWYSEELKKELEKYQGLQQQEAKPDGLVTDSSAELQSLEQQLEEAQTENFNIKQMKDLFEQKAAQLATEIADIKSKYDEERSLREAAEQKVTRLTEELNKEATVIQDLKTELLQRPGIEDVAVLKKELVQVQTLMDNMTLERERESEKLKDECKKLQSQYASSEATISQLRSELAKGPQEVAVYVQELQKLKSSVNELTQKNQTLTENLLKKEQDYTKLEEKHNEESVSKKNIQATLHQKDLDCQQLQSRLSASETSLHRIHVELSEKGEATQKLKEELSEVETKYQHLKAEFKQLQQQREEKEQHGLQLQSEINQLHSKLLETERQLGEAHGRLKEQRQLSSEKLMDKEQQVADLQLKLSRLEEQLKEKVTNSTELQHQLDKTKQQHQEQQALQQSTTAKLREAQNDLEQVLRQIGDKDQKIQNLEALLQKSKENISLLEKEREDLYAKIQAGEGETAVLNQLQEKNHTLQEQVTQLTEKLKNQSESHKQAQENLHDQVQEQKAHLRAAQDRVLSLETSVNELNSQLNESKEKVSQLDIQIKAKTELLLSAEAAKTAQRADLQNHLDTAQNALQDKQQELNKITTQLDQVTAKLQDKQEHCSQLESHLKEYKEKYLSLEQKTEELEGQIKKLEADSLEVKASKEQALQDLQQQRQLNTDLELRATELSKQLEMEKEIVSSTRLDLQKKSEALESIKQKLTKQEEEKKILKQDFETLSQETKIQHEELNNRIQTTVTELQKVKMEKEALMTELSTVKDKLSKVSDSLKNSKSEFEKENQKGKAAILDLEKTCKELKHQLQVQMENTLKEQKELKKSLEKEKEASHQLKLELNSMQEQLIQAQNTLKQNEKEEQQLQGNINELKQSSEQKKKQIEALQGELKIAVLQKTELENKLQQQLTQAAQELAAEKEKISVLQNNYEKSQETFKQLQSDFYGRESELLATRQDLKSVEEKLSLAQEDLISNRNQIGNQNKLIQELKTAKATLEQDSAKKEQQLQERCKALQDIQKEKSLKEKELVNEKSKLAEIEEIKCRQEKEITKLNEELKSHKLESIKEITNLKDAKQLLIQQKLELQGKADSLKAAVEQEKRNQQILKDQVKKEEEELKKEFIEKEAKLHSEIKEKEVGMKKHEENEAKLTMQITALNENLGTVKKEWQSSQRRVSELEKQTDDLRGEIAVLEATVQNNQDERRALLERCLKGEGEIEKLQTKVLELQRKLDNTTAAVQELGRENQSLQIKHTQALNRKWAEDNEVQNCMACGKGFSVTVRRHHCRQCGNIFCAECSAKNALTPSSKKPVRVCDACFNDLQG

One assay addresses T1, Flag-HA-BBS4 (UniProt Q96RK4).
T1 sequence: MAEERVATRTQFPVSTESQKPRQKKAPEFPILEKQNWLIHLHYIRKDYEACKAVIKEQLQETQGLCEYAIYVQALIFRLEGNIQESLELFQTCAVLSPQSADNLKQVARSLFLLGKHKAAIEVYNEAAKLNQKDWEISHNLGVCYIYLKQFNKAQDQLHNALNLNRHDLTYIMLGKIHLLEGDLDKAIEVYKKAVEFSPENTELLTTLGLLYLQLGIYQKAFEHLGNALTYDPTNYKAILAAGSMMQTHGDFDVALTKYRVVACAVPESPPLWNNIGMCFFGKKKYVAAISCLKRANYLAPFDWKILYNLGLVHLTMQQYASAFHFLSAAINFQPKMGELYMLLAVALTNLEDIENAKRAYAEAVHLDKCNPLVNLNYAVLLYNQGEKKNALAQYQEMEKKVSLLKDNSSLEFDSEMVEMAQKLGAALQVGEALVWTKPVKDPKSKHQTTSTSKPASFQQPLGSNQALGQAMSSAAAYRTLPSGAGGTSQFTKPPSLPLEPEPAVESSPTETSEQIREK
Put plainly: co-IP.

Another assay addresses T2, Flag-HA-BBS1 (UniProt Q8NFJ9).
T2 sequence: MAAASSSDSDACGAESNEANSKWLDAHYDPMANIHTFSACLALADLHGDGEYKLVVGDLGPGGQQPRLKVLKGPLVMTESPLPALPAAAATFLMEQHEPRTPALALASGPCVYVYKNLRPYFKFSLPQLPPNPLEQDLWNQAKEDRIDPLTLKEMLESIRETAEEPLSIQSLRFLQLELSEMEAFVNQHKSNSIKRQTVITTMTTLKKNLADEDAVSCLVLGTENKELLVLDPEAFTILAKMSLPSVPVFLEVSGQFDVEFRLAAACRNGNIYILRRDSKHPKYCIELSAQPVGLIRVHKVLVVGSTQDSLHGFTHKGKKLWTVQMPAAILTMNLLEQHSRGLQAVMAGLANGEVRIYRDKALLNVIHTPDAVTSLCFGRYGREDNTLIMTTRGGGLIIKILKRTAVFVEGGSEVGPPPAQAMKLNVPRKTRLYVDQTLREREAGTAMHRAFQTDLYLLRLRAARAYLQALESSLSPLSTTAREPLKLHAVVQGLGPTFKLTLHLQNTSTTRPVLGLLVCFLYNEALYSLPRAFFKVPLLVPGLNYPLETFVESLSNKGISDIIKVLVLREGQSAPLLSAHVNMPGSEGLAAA
Kind of assay: co-IP.

These are yes or no findings as the source states them, for the method shown. Binding seen in cells or lysates may run through a third protein. Tags and fused reporters may be left off the sequences shown.

For the substance RAB7 (from UniProt P51149 1-207), the binding entry in the assay with Flag-HA-BBS4 and with Flag-HA-BBS1 was “no binding” throughout.
For the substance “early endosome antigen 1 (from UniProt Q15075 1-1411)”, the binding entry with Flag-HA-BBS4 and in the assay with Flag-HA-BBS1 was “no binding” in each case.
